Measurements reported in PubChem BioAssay AID743454 (Peter MacCallum Cancer Centre, 2014)

- Test: 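Knock-downs lowering viability or raising caspase 3/7 activity in vorinostat-treated resistant cells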 (primary screen)
- Cell system: human HCT116-VR colon cancer cells, selected for vorinostat resistance
- Reagent: siRNA pool against human genes, 40 nM siRNA pool
- Duration: vorinostat for 24 h, read-out about 72 h after transfection
- Treatment: vorinostat at 2.5 µM final
- Read-out: 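Cell viability by CellTiter-Fluor and caspase 3/7 activity by luminescence, each scaled to mock wells per plate, duplicates averaged, then robust z-scored over all plates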
- Reading the numbers: viability robust z-score: higher = more viable cells than screen typical; caspase robust z-score: higher = more caspase 3/7 activity than screen typical
- Active means: 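a knock-down is a hit when classed RV1 or RV2 for lowered viability, or CA1 or CA2 for caspase activation; those lethal without drug were dropped; hits were retested singly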
The whole screen tested about 18,000 reagents; shown is an unselected part. In the full data, 450 (2.5%) are marked active. 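Single biological run; no consistent viability z cut-off exists, so the class columns, not z-scores, define the calls.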

{"gene symbol": "MADCAM1", "viability hit class": "no change", "caspase hit class": "no change", "viability robust z-score": -1.3, "caspase robust z-score": -0.03, "activity call": "inactive"}
{"gene symbol": "DAZL", "viability hit class": "no change", "caspase hit class": "no change", "viability robust z-score": 1.43, "caspase robust z-score": -0.36, "activity call": "inactive"}
{"gene symbol": "CCM2L", "viability hit class": "no change", "caspase hit class": "no change", "viability robust z-score": -1.1, "caspase robust z-score": 0.01, "activity call": "inactive"}
{"gene symbol": "KLHL6", "viability hit class": "no change", "caspase hit class": "no change", "viability robust z-score": 1.51, "caspase robust z-score": -0.18, "activity call": "inactive"}
{"gene symbol": "MACROH2A2", "viability hit class": "no change", "caspase hit class": "no change", "viability robust z-score": -0.96, "caspase robust z-score": -0.4, "activity call": "inactive"}
{"gene symbol": "PNLIPRP3", "viability hit class": "no change", "caspase hit class": "no change", "viability robust z-score": -0.94, "caspase robust z-score": -0.84, "activity call": "inactive"}
{"gene symbol": "GGCT", "viability hit class": "no change", "caspase hit class": "no change", "viability robust z-score": -1.26, "caspase robust z-score": -0.86, "activity call": "inactive"}
{"gene symbol": "SPEG", "viability hit class": "no change", "caspase hit class": "no change", "viability robust z-score": -0.04, "caspase robust z-score": -0.98, "activity call": "inactive"}
{"gene symbol": "SELPLG", "viability hit class": "no change", "caspase hit class": "no change", "viability robust z-score": -1.34, "caspase robust z-score": -0.34, "activity call": "inactive"}
{"gene symbol": "PPM1H", "viability hit class": "no change", "caspase hit class": "no change", "viability robust z-score": 0.06, "caspase robust z-score": -0.31, "activity call": "inactive"}
{"gene symbol": "CASP6", "viability hit class": "no change", "caspase hit class": "no change", "viability robust z-score": 0.44, "caspase robust z-score": 0.37, "activity call": "inactive"}
{"gene symbol": "PRKCQ", "viability hit class": "no change", "caspase hit class": "no change", "viability robust z-score": 0.88, "caspase robust z-score": 0.38, "activity call": "inactive"}

Ordered by “caspase robust z-score” (low to high): some entries from above.
{"gene symbol": "GGCT", "viability hit class": "no change", "caspase hit class": "no change", "viability robust z-score": -1.26, "caspase robust z-score": -0.86, "activity call": "inactive"}
{"gene symbol": "PNLIPRP3", "viability hit class": "no change", "caspase hit class": "no change", "viability robust z-score": -0.94, "caspase robust z-score": -0.84, "activity call": "inactive"}
